Assay [1] deals with Flag-tagged recombinant human GMAD (human) (UniProt Q9HD89). Kind of assay: phage ELISA.
The target is the same in assay [2]. Description: phage display selection of scFvs.

Sequences of proteins named here, by UniProt entry; tags and fusion partners are left off. A change or cut given only in a name is not applied to a line headed by its entry.
UniProt Q9HD89: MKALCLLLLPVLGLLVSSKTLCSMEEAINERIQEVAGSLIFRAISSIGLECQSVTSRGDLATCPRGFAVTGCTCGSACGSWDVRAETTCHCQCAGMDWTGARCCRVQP

The results in this text go back to patent publication US20050069542A1 (Human Genome Sciences, published 2005).

These are yes or no findings as the source states them, for the method shown. Some entries that bind do so weakly or less than the wild type.

B1: GMBC613 (scFv)
scFv: KVQLVESGGGLVQPGGSLRLSCAASGFTISSHWMSWVRQAPGKGLEWVASIKQDGREKHFVDSVKGRFSISRDNAKNSLYLQMNSLRTEDTAVYYCARETYGGYYYYFMDVWGKGTLVTVSSGGGGSGGGGSGGGGSSELTQDPAVSVALGQTVRITCQGDSLRSYYASWYQQKPGQAPVLVIYGKNNRPSGIPDRFSGSSSGNTASLTITGAQAEDEADYYCNSRDSSGNHVVFGGGTKLTVLG
As for B1, the binding result in assay [1] and in assay [2] was “binds” each time.

B2: GMBC692 (scFv)
scFv: EVQLVQSGGGLVKPGGSLRLSCAASGFTFSDAWMNWVRQAPGKGLEWVGRIKSKGSGGTIDYAAPVKDRFTISRDDSKNTLYLQMNSLKTEDTALYYCTWDWDFYYGMNVWGRGTLVTVSSGGGGSGGGGSGGGGSQSVLTQPASVSGSPGQSITISCTGTSSDVGGYNYVSWYQQHPGKAPKLMIYEGSKRPSGVSNRFSGSKSGNTASLTISGLQAEDEADYYCSSYTTRSTRVFGGGTKLTVLG
For the molecule B2, the binding entry in assay [1] and in assay [2] was “binds” in each case.

B3: GMBC615 (scFv)
scFv: EVQLVESGGGLVKPGGSLRLSCAASGFKFSDAWMNWVRQAPGKGLEWVGRIKSKGSGGTIDYAAPVKDRFTISRDDSKNTLYLQMNSLKTEDTALYYCTWDWDFYYGMNVWGKGTLVAVSSGGGGSGGGGSGGGGSQSVLTQPASVSGSPGQSITISCTGTSSDVGGYNYVSWYQQHPGKAPKLMIYEGSKRPSGVSNRFSGSKSGNTASLTISGLQAEDEADYYCSSYTTRSTRVFGGGTKLTVLG
In the case of B3, the binding result in assay [1] and in assay [2] was “binds” throughout.

B4: GMBC658 (scFv)
scFv: EVQLVQSGGGLVKPGGSLRLSCAASGFTFSDAWMNWVRQAPGKGLEWVGRIKSKGSGGTIDYAAPVKDRFTISRDDSKNTLYLQMNSLKTEDTALYYCTWDWDFYYGMNVWGRGTTVTVSSGGGGSGGGGSGGGGSQSVLTQPASVSGSPGQSITISCTGTSSDVGGYNYVSWYQQHPGKAPKLMIYEGSKRPSGVSNRFSGSKSGNTASLTISGLQAEDEADYYCSSYTTRSTRVFGGGTKLTVLG
On to B4, for which the binding result in assay [1] and in assay [2] was “binds” each time.

B5: GMBC620 (scFv)
scFv: EVQLVESGGGLVKPGGSLRLSCAASGFTFSDAWMNWVRQAPGKGLEWVGRIKSKGSGGTIDYAAPVKDRFTISRDDSKNTLYLQMNSLKTEDTALYYCTWDWDFYYGMNVWGRGTMVTVSSGGGGSGGGGSGGGGSQSVLTQPASVSGSPGQSITISCTGTSSDVGGYNYVSWYQQHPGKAPKLMIYEGSKRPSGVSNRFSGSKSGNTASLTISGLQAEDEADYYCSSYTTRSTRVFGGGTKLTVLG
Regarding B5, the binding entry in assay [1] and in assay [2] was “binds” each time.

B6: GMBC614 (scFv)
scFv: EVQLVQSGGGLVKPGGSLRLSCAASGFTFSDAWMNWVRQAPGKGLEWVGRIKSKGSGGTIDYAAPVKDRFTISRDDSKNTLYLQMNSLKTEDTALYYCTWDWDFYYGMNVWGRGTMVTVSSGGGGSGGGGSGGGGSQSVLTQPASVSGSPGQSITISCTGTSSDVGGYNYVSWYQQHPGKAPKLMIYEGSKRPSGVSNRFSGSKSGNTASLTISGLQAEDEADYYCSSYTTRSTRVFGGGTKLTVLG
Turning to B6, the binding result in assay [1] and in assay [2] was “binds” each time.

B7: GMBC605 (scFv)
scFv: QVQLVQSGGGLVKPGGSLRLSCETSGFKFSDAWMNWVRQAPGKGLEWVGRIKSKGSGGTIDYAAPVKDRFTISRDDSKNTLYLQMNSLKTEDTALYYCTWDWDFYYGMNVWGRGTLVTVSSGGGGSGGGGSGGGGSQSVLTQPASVSGSPGQSITISCTGTSSDVGGYNYVSWYQQHPGKAPKLMIYEGSKRPSGVSNRFSGSKSGNTASLTISGLQAEDEADYYCSSYTTRSTRVFGGGTKLTVLG
For B7, the binding result in assay [1] and in assay [2] was “binds” throughout.

B8: GMBC654 (scFv)
scFv: EVQLVETGGGLVEPGGSLRLSCAASGFTFSDAWMNWVRQAPGKGLEWVGRIKSKRSGGTIDYAAPVKDRFTISRDDSKNTLYLQMNSLKIEDTALYYCTWDWDFYYGMNVWGKGTTVTVSSGGGGSGGGGSGGGGSQSVLTQPASVSGSPGQSITISCTGTSSDVGGYNYVSWYQQHPGKAPKLMIYEGSKRPSGVSNRFSGSKSGNTASLTISGLQAEDEADYYCSSYTTRSTRVFGGGTKLTVLG
Turning to B8, the binding entry in assay [1] and in assay [2] was “binds” throughout.

B9: GMBC651 (scFv)
scFv: EVQLVESGGGLVQPGGSLRLSCAASGFTFSDAWMNWVRQAPGKGLEWVGRIKSKGSGGTIDYAAPVKDRFTISRDDSKNTLYLQMNSLKTEDTALYYCTWDWDFYYGMNVWGRGTMVTVSSGGGGSGGGGSGGGGSQSVLTQPASVSGSPGQSITISCTGTSSDVGGYNYVSWYQQHPGKAPKLMIYEGSKRPSGVSNRFSGSKSGNTASLTISGLQAEDEADYYCSSYTTRSTRVFGGGTKLTVLG
For B9, the binding result in assay [1] and in assay [2] was “binds” each time.

B10: GMBC660 (scFv)
scFv: EVQLVQSGGGLVKPGGSLRLSCAASGFIFSDAWMNWVRQAPGKGLEWVGRIKSKGSGGTIDYAAPVKDRFTISRDDSKNTLYLQMNSLKTEDTALYYCTWDWDFYYGMNVWGQGTPVTVSSGGGGSGGGGSGGGGSQSVLTQPASVSGSPGQSITISCTGTSSDVGGYNYVSWYQQHPGKAPKLMIYEGSKRPSGVSNRFSGSKSGNTASLTISGLQAEDEADYYCSSYTTRSTRVFGGGTKLTVLG
Regarding B10, the binding result in assay [1] and in assay [2] was “binds” in each case.

B11: GMBC647 (scFv)
scFv: EVQLVESGGGLVKPGGSLRLSCAASGFTFSDAWMNWVRQAPGKGLEWVGRIKSKGSGGTIDYAAPVKDRFTISRDDSKNTLYLQMNSLKTEDTALYYCTWDWDFYYGMNVWGQGTTVTVSSGGGGSGGGGSGGGGSQSVLTQPASVSGSPGQSITISCTGTSSDVGGYNYVSWYQQHPGKAPKLMIYEGSKRPSGVSNRFSGSKSGNTASLTISGLQAEDEADYYCSSYTTRSTRVFGGGTKLTVLG
As for B11, the binding entry in assay [1] and in assay [2] was “binds” each time.

B12: GMBC607 (scFv)
scFv: EVQLVQSGGGLVKPGGSLRLSCAASGFTFSDAWMNWVRQAPGKGLEWVGRIKSKGSGGTIDYAAPVKDRFTISRDDSKNMLYLEMNSLKTEDTALYYCTWDWDFYYGMNVWGQGTMVTVSSGGGGSGGGGSGGGGSQSVLTQPASVSGSPGQSITISCTGTSSDVGDYNYVSWYQQHPGKAPKLMIYEGSKRPSGVSNRFSGSKSGNTASLTISGLQAEDEADYYCSSYTTRSTRVFGGGTKLTVLG
In the case of B12, the binding result in assay [1] and in assay [2] was “binds” each time.

B13: GMBC616 (scFv)
scFv: EVQLVESGGGLVKPGGSLRLSCAASGFTFSDAWMNWVRQAPGKGLEWVGRIKSKGSGGTTDYAAPVKDRFTISRDDSENTLYLQMNSLKTEDTAVYYCTWDHSYYYDMAVWGRGTLVTVSSGGGGSGGGGSGGGGSQSVLTQPPFVSGSPGQSITISCTGTSSDVGGYNYVSWYQQHPGKAPKLMIYEGSKRPSGVSNRFSGSKSGNTASLTISGLQAEDEADYYCSSYTTRSTRVFGGGTKLTVLG
With B13, the binding entry in assay [1] and in assay [2] was “binds” throughout.

B14: GMBC649 (scFv)
scFv: QVQLVQSGGGLVKPGGSLRLSCAASGFTFSDAWMNWVRQAPGKGLEWVGRIKSKGSGGTIDYAAPVKDRFTISRDDSKNTLYLQMNSLKTEDTALYYCTWDWDFYYGMNVWGRGTLVTVSSGGGGSGGGGSGGGGSQSVLTQPASVSGSPGQSITISCTGTSSDVGGYNYVSWYQQHPGKAPKLMIYEGSKRPSGVSNRFSGSKSGNTASLTISGLQAEDEADYYCSSYTTRSTRVFGGGTKLTVLG
On to B14, for which the binding result in assay [1] and in assay [2] was “binds” in each case.

B15: GMBC645 (scFv)
scFv: EVQLVESGGGLVKPGGSLRLSCAGSGFKFSDAWMNWVRQAPGKGLEWVGRIKSKGSGGTIEYAAPVKDRFIISRDDSKDTLYLQMNSLKTEDTALYYCTWDWDFYYGMNVWGRGTLVTVSSGGGGSGGGGSGGGGSQSVLTQPASVSGSPGQSITISCTGTSSDVGGYNYVSWYQQHPGKAPKLMIYEGSKRPSGVSNRFSGSKSGNTASLTISGLQAEDEADYYCSSYTTRSTRVFGGGTELTVLG
With B15, the binding result in assay [1] and in assay [2] was “binds” in each case.

B16: GMBC634 (scFv)
scFv: QVQLVQSGGGLVKPGGSLRLSCAASGFTFSDAWMNWVRQAPGKGLEWVGRIKSKGSGGTIDYAAPVKDRFTISRDDSKNTLYLQMNSLKTEDTALYYCTWDWDFYYGMNVWGQGTLVTVSSGGGGSGGGGSGGGGSQSVLTQPASVSGSPGQSITISCTGTSSDVGGYNYVSWYQQHPGKAPKLMIYEGSKRPSGVSNRFSGSKSGNTASLTISGLQAEDEADYYCSSYTTRSTRVFGGGTKLTVLG
For B16, the binding entry in assay [1] and in assay [2] was “binds” throughout.

B17: GMBC625 (scFv)
scFv: EVQLVQSGGGLVKPGGSLRLSCAASGFTFSDAWMNWVRQAPGKGLEWVGRIKSKRSGGTIDYAAPVKDRFTISRDDSKDTMYLQMNSLKTEDTALYYCTWDWDFYYGMNVWGQGTMVTVSSGGGGSGGGGSGGGGSQSVLTQPASVSGSPGQSITISCTGTSSDVGGYNYVSWYQQHPGKAPKLMIYEGSKRPSGVSNRFFGSKSGNTASLTISGLQAEDEADYYCSSYTTRSTRVFGGGTKLTVLG
With B17, the binding result in assay [1] and in assay [2] was “binds” throughout.

B18: GMBC603 (scFv)
scFv: QVQLVQSGGGVVRPGGSLRLSCAASGFTFDDYGMSWVRQAPGKGLEWVSGINWNGGSTGYADSVKGRFTISRDNAKNSLYLQMNSLRAEDTALYYCAKDLNYDFWSGSGMDVWGRGTLVTVSSGGGGSGGGGSGGGGSQSVLTQPASVSGSPGQSITISCTGTSSDVGGYNYVSWYQQHPGKAPKLMIYEGSKRPSGVSNRFSGSKSGNTASLTISGLQAEDEADYYCSSYTTRSTRVFGGGTKLTVLG
In the case of B18, the binding result in assay [1] and in assay [2] was “binds” throughout.
